{"source": "patent US20210163929A1", "about": "“METHODS AND COMPOSITIONS FOR THE TREATMENT OF HEPATIC AND METABOLIC DISEASES” (The Regents of the University of California, priority 2018, published 2021)", "key": {"[1]": {"tested_on": "FGF21 signaling and miR-22 in Huh7 cells", "assay": "mRNA and protein levels in Huh7 cells treated with OCA/INT-747, CDCA, butyrate or RA plus butyrate", "format": "cell-based, human", "settings": "butyrate 3 mM, 24 hours", "protocol": "Cell culture: Huh7 cells were obtained from Japanese Collection of Research Bioresources and maintained in DMEM with 10% FBS. Cells were treated with DMSO, OCA (5 or 20 μM; Apexbio Technology LLC, Houston, Tex., USA) in serum-free media for indicated time. Cells were plated (1×10^6 cells per 60-mm dish, 2×10^5 cells per 6-well plates, and 1×10^5 cells per 24-well plates) overnight prior to treatment or infection.\nGene expression quantification: Total RNA was extracted using TRIzol Reagent (Thermo Fisher Scientific, Waltham, Mass., USA), and cDNA was generated using High Capacity RNA-to-cDNA Kit (Applied Biosysterms, Carlsbad, Calif., USA). qRT-PCR was performed on ABI 7900HT Fast Real-time PCR system using Power SYBR® Green PCR Master Mix (Applied Biosysterms).\nWestern blot: Western blot was performed as described previously (26). Antibodies used were anti-FGFR1, FGF21, FASN, phosphor (P)-AMPK, total (T)-AMPK, phosphor (P)-ERK1/2, and total (T)-ERK1/2 (Cell Signaling Technology, Beverly, Mass., USA), β-ACTIN (MilliporeSigma), CD36 (Bioss Antibodies Inc., Woburn, Mass., USA), CYCLIN A2, PGC1α (Novus Biologicals, LLC, Littleton, Colo., USA), and PPARα (Santa Cruz Biotechnology, Santa Cruz, Calif., USA)."}, "miR-22 in HCT116 cells": {"tested_on": "miR-22 in HCT116 cells", "assay": "miR-22 induction in HCT116 cells treated with bile acids or HDAC inhibitors", "format": "cell-based, human", "settings": "1-day treatment, SAHA (5, butyrate 5 mM, propionate 10 mM, valerate 10 mM)"}, "NASH": {"tested_on": "NASH", "settings": "recent publication; cited from earlier work"}, "WD-fed obese mice": {"tested_on": "WD-fed obese mice", "assay": "Butyrate in WD-fed obese mice", "format": "in vivo, mouse"}, "[2]": {"tested_on": "healthy C57BL/6 male mice", "assay": "Butyrate supplementation in chow diet-fed healthy mice", "format": "in vivo, mouse", "settings": "butyrate 1 g/kg body weight orally for 7 days"}}, "note": "At least one structure is not confirmed: it was looked up by name or label, or the drawing left a doubt.", "data": [{"smiles": "CCCC(=O)O", "note": "[butyrate]", "values": [{"measurement": "FGF21, FGFR1, βKlotho, and miR-22 levels", "setting": "[1]", "result": "simultaneously induced FGF21, FGFR1, βKlotho, and miR-22"}, {"measurement": "mRNA and protein level of FGF21, FGFR1, and βKlotho", "setting": "[1]", "result": "increased the mRNA and protein level of FGF21, FGFR1, and βKlotho"}, {"measurement": "AMPK and ERK1/2 activation", "setting": "[1]; Western blot", "result": "activated AMPK and ERK1/2"}, {"measurement": "miR-22 level", "setting": "miR-22 in HCT116 cells", "result": "induced miR-22"}, {"measurement": "NASH treatment", "setting": "NASH", "result": "effective in treating NASH"}, {"measurement": "insulin sensitivity", "setting": "WD-fed obese mice", "result": "improved insulin sensitivity"}, {"measurement": "expression of hepatic inflammation, fibrotic and proliferation genes", "setting": "[2]", "result": "reduced the expression of many hepatic inflammation genes"}, {"measurement": "expression of metabolism genes (Pparα and Pgc-1α)", "setting": "[2]", "result": "increased the expression of metabolism genes (Pparα and Pgc-1α)"}, {"measurement": "hepatic FXR and ileum FGF15", "setting": "[2]", "result": "increased hepatic FXR as well as ileum FGF15"}]}]}
